Assay results reported in publication PMC3168489.
These are yes or no findings as the source states them, for the method shown. Binding seen in cells or lysates may run through a third protein. Here binding means that the protein was enriched with, or labelled near, the bait; the list need not be complete. Where a sequence is shown, tags or fusion partners need not be part of it.

Chains of the proteins cited; added tags and fusions are not shown.
UniProt P69897: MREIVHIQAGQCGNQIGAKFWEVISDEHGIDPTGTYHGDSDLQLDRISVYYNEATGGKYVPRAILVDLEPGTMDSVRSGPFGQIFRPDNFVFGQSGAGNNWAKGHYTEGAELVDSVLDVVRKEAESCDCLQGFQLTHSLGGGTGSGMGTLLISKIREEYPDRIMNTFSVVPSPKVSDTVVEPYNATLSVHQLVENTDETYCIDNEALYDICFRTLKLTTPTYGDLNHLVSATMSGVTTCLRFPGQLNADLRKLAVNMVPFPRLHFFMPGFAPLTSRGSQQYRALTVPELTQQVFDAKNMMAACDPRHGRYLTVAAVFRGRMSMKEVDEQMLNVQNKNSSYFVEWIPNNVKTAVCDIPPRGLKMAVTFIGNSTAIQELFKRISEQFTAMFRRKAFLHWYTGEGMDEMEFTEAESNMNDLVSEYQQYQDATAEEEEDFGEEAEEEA

Target: T1, His-Rasd1 (mouse) (UniProt O35626)
T1 sequence: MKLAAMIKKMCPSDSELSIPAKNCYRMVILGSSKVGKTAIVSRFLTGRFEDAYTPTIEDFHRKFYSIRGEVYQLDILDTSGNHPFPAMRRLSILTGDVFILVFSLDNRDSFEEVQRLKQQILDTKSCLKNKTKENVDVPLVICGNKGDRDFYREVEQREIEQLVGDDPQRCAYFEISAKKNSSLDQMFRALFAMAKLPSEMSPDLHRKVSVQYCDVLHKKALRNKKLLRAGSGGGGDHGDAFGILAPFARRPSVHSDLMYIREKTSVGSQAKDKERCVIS
Assay: affinity purification with mass spectrometry; His-Rasd1 from transfected COS-7 cells held on Ni-NTA magnetic agarose beads, washed, incubated with PC-12 lysate overnight at 4°C; bound proteins eluted in Laemmli buffer, Coomassie bands cut from 12% SDS-PAGE, MALDI-TOF/MS; only the target purified

Tubulin beta 5 (endogenous, PC-12 lysate) (from UniProt P69897 1-444)
binding: binds

B1: NonO (endogenous, PC-12 lysate) (protein, UniProt Q5FVM4 1-476)
chain: MQSNKTFNLEKQNHTPRKHHQHHHQQHHQQQQQQQQQQQQQPPPPIPANGQQASSQNEGLTIDLKNFRKPGEKTFTQRSRLFVGNLPPDITEEEMRKLFEKYGKAGEVFIHKDKGFGFIRLETRTLAEIAKVELDNMPLRGKQLRVRFACHSASLTVRNLPQYVSNELLEEAFSVFGQVERAVVIVDDRGRPSGKGIVEFSGKPAARKALDRCSEGSFLLTTFPRPVTVEPMDQLDDEEGLPEKLVIKNQQFHKEREQPPRFAQPGSFEYEYAMRWKALIEMEKQQQDQVDRNIKEAREKLEMEMEAARHEHQVMLMRQDLMRRQEELRRMEELHNQEVQKRKQLELRQEEERRRREEEMRRQQEEMMRRQQEGFKGTFPDAREQEIRMGQMAMGGAMGINNRGAMPPAPVPPGTPAPPGPAAMMPDGTLGLTPPTTERFGQAATMEGIGAIGGTPPAFNRPAPGAEFAPNKRRRY
binding: binds
